The exact form of at least one protein or probe is not confirmed.
System: HpyCH4V restriction endonuclease (Helicobacter pylori CH4)
Test: enzyme reaction in vitro
Conditions: cleaves between G and C on both strands, blunt ends; primer extension product on M13mp18, 37 C 1 h; purified native protein; only the motif is given

With “TGCA (double strand) [HpyCH4V recognition site TGCA]” the “activity on this sequence” value was “active”.

From patent US6133009
